Results are given in words; binding and its absence hold for the method and conditions named. Binding seen in cells or lysates may run through a third protein. A yes stands for co-enrichment or nearness to the bait. Other partners may have been found.
Target: glucocorticoid receptor (GR/NR3C1) (mouse (endogenous in immortalized mouse keratinocytes)) (UniProt P06537)
Test: affinity purification with mass spectrometry; RIME: mouse keratinocytes treated with vehicle (EtOH) or 100 nM Dex for 1 h, cross-linked with 1% formaldehyde; sonicated nuclear lysates immunoprecipitated overnight with GR antibody (sc-1004) or rabbit IgG on Protein A Dynabeads; 7 washes with RIPA buffer (0.5 M LiCl); on-bead trypsin digest, timsTOF Pro; proteins also found in IgG control excluded

Chains of the proteins cited; added tags and fusions are not shown.
UniProt P06537: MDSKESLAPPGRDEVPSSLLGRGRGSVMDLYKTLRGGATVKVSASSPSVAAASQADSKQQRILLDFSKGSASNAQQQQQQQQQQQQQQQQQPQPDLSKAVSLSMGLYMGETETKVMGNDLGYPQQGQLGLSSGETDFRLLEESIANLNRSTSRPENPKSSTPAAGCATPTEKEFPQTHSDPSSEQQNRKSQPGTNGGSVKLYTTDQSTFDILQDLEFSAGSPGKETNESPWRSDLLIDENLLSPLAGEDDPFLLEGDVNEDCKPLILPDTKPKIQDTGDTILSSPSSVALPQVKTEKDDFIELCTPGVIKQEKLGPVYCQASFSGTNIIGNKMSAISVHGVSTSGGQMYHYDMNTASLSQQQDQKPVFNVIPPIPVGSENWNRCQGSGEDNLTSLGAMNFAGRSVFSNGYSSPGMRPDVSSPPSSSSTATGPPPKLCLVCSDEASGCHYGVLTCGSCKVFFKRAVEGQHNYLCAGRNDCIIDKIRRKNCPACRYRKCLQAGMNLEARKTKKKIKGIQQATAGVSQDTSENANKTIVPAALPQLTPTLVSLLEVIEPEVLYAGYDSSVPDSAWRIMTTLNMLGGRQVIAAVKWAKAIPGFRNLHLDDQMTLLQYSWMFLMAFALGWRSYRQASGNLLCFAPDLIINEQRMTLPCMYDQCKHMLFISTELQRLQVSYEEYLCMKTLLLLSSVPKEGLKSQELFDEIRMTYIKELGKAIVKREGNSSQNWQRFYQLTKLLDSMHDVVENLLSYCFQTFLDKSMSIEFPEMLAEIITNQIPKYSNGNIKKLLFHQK
UniProt A2BH40: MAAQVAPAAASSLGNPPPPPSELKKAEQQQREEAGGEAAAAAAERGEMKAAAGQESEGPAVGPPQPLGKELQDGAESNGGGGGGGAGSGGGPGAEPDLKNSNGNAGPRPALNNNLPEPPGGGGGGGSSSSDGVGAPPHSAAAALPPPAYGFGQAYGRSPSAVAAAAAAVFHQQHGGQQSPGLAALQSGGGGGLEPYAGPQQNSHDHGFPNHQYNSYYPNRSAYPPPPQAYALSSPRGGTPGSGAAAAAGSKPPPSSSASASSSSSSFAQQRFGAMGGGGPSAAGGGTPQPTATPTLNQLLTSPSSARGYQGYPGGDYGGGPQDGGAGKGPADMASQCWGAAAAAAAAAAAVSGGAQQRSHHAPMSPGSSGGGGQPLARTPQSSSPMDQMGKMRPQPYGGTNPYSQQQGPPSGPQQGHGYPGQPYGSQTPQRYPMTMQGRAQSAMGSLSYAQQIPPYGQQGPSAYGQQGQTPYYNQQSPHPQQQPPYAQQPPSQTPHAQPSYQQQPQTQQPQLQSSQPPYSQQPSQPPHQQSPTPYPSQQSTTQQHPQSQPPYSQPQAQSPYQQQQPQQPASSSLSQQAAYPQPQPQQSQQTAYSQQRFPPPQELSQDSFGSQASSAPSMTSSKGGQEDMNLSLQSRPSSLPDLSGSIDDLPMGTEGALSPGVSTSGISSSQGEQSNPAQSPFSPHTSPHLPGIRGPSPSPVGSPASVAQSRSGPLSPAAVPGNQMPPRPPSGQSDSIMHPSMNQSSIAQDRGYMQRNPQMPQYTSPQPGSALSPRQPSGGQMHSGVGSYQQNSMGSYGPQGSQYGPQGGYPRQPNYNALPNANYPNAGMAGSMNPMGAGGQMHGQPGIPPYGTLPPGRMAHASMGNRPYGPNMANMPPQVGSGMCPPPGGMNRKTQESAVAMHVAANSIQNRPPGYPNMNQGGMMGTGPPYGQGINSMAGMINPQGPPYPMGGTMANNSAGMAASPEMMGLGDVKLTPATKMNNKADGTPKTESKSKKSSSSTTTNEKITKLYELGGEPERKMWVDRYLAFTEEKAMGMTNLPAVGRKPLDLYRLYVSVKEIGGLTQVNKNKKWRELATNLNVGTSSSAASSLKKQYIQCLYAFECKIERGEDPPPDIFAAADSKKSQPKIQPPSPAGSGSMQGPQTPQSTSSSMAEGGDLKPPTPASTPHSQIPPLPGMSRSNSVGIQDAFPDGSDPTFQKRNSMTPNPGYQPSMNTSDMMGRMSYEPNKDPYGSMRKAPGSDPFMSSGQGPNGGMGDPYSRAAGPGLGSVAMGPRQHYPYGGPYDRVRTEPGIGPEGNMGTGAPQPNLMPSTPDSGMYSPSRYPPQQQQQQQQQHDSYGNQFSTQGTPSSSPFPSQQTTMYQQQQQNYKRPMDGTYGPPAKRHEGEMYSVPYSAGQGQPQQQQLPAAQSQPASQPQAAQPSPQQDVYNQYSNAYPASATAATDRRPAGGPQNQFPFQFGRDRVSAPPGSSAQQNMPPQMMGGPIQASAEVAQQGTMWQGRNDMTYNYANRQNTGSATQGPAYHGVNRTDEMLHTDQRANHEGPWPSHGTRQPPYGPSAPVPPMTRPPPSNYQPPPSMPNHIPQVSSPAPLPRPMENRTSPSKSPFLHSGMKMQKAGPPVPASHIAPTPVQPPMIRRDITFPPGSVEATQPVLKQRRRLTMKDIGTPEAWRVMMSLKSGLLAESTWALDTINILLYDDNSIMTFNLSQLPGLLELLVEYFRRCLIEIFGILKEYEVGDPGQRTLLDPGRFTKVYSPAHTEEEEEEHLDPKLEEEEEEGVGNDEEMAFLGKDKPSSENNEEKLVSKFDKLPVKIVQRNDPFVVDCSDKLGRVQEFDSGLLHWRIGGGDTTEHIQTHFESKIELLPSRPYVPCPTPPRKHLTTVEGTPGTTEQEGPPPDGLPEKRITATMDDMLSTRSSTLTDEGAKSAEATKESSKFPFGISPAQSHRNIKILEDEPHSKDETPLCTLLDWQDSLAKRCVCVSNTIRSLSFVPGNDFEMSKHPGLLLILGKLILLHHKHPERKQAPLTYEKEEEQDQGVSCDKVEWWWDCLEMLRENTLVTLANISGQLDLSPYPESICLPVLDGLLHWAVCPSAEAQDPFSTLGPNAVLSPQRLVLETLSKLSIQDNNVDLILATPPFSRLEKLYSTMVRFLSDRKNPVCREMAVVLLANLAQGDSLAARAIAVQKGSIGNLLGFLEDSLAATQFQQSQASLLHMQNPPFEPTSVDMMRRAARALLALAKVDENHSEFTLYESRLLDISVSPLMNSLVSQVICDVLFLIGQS
UniProt Q03347: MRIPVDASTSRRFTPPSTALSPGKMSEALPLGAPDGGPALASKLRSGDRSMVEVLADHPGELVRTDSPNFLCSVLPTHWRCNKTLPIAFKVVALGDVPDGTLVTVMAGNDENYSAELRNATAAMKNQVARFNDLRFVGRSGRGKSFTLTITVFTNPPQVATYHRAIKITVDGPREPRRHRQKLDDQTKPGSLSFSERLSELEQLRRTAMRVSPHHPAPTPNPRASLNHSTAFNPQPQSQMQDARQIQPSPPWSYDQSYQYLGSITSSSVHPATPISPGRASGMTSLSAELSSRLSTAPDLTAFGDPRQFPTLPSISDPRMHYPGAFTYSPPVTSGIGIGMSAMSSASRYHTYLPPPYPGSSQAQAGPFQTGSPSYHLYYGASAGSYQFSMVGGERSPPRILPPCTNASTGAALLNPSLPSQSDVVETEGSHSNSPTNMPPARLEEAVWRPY
UniProt Q9Z0Z7: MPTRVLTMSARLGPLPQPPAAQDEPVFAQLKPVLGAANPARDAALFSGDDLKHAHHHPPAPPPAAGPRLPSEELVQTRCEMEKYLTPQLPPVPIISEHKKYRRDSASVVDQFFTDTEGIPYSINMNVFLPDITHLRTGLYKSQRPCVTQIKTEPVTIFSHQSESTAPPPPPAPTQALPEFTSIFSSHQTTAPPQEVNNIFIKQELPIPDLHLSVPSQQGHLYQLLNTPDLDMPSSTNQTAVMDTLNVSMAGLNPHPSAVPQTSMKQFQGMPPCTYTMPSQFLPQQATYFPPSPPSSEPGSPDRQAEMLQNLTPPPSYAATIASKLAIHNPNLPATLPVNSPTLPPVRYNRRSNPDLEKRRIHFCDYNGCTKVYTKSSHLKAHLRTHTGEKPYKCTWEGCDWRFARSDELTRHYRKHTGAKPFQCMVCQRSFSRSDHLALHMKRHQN
UniProt Q99JR8: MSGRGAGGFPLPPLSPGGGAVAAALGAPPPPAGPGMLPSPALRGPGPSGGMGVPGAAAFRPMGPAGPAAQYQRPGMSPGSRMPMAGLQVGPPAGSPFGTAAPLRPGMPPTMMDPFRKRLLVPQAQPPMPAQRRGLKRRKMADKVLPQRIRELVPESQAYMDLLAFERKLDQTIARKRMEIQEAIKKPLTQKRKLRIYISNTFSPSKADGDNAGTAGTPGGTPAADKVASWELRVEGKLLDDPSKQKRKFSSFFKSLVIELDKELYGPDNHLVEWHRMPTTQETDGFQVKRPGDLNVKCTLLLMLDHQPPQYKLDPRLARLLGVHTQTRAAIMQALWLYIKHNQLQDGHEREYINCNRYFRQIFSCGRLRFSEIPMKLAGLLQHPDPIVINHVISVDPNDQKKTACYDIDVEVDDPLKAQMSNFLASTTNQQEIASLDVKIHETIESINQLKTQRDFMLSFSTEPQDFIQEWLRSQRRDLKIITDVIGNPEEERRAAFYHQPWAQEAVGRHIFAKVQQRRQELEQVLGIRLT
UniProt Q91ZW3: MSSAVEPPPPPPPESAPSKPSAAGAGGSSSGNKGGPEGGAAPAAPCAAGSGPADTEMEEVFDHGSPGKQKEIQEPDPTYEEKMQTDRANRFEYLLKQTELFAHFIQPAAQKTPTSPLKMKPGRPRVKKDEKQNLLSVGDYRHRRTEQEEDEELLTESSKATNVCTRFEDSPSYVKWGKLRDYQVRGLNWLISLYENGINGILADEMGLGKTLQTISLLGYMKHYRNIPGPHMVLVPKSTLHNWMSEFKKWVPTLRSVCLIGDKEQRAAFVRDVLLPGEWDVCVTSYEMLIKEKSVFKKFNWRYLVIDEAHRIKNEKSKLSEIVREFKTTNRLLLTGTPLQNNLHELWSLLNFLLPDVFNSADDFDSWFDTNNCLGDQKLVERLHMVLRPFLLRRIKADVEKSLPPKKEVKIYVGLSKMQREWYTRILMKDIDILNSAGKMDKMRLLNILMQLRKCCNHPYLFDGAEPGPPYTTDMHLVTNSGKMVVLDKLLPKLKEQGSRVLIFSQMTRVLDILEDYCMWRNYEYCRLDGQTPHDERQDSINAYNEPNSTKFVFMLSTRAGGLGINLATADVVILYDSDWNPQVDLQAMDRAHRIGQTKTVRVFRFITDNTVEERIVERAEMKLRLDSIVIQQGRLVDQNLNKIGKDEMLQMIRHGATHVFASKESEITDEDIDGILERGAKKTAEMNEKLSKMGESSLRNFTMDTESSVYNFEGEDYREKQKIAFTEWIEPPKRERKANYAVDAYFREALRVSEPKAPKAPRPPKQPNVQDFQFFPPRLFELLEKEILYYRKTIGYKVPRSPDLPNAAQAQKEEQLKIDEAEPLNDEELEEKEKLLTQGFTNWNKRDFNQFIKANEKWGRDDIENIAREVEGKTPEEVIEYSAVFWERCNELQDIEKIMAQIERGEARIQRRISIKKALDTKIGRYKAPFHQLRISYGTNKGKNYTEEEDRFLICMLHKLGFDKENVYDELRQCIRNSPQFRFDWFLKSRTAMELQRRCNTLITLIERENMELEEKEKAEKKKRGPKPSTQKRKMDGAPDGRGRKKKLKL

For ARID1A (from UniProt A2BH40 1-2283), the binding was “binds”.

With RUNX1 (from UniProt Q03347 1-451) the binding was “binds”.

With SMARCA4 (from UniProt Q3TKT4 1-1613) the binding was “binds”.

In the case of “Krüppel-like factor (KLF)5 (from UniProt Q9Z0Z7 1-446)”, the binding is reported as “binds”.

With SMARCD2 (from UniProt Q99JR8 1-531) the binding was “binds”.

For CBP (from UniProt P45481 1-2441), the binding was “binds”.

SMARCA5 (from UniProt Q91ZW3 1-1051) was tested, and the binding was “binds”.

B1: Grainyhead-like (GRHL)1 (protein, UniProt Q921D9 1-618)
chain: MTQEYDNKRPVLVLQNEALYPQRRSYTSEDEAWKSFLENPLTAATKAMMSINGDEDSAAALGLLYDYYKVPRERRSSAVKPEGEHPEPEHSKRNSIPNVTEQPLISAGENRVQVLKNVPFNIVLPHSNQLGIDKRGHLTAPDTTVTVSIATMPTHSIKTEIQPHGFAVGIPPAVYHSEPTERVVVFDRSLSTDQFSSGTQPPNAQRRTPDSTFSETFKEGVQEVFFPSELSLRMPGMNSEDYVFDNVSGNNFEYTLEASKSLRQKQGDSTMTYLNKGQFYPVTLKEGSSNEGIHHPISKVRSVIMVVFAEDKSREDQLRHWKYWHSRQHTAKQRCIDIADYKESFNTISNIEEIAYNAISFTWDINDEAKVFISVNCLSTDFSSQKGVKGLPLNIQIDTYSYNNRSNKPVHRAYCQIKVFCDKGAERKIRDEERKQSKRKVSDVKVQLLPSHKRTDITVFKPFLDLDTQPVLFIPDVHFTNLQRGSHVLSLPSEELEGEGSVLKRGPFGTEDDFGVPPPAKLTRTEEPKRVLLYVRKESEEVFDALMLKTPSLKGLMEAISDKYDVPHDKIGKIFKKCKKGILVNMDDNIVKHYSNEDTFQLQIEEAGGSYKLTLTEI
B1 was tested, and the binding was “binds”.

B2: PPP5c (enzyme, UniProt Q60676 1-499)
chain: MAMAEGERTECAETPRDEPPADGTLKRAEELKTQANDYFKAKDYENAIKFYSQAIELNPGNAIYYGNRSLAYLRTECYGYALGDATRAIELDKKYIKGYYRRAASNMALGKFRAALRDYETVVKVKPNDKDAKMKYQECSKIVKQKAFERAIAGDEHRRSVVDSLDIESMTIEDEYSGPKLEDGKVTITFMKDLMQWYKDQKKLHRKCAYQILVQVKEVLCKLSTLVETTLKETEKITVCGDTHGQFYDLLNIFELNGLPSETNPYIFNGDFVDRGSFSVEVILTLFGFKLLYPDHFHLLRGNHETDNMNQIYGFEGEVKAKYTAQMYELFSEVFEWLPLAQCINGKVLIMHGGLFSEDGVTLDDIRKIERNRQPPDSGPMCDLLWSDPQPQNGRSVSKRGVSCQFGPDVTKAFLEENQLDYIIRSHEVKAEGYEVAHGGRCVTVFSAPNYCDQMGNKASYIHLQGSDLRPQFHQFTAVPHPNVKPMAYANTLLQLGMM
For B2, the binding was “binds”.

B3: NRIP1 (protein, UniProt Q8CBD1 1-1161)
chain: MTHGEELGSDVHQDSIVLTYLEGLLMHQAAGGSGTAINKKSAGHKEEDQNFNLSGSAFPSCQSNGPTVSTQTYQGSGMLHLKKARLLQSSEDWNAAKRKRLSDSIVNLNVKKEALLAGMVDSVPKGKQDSTLLASLLQSFSSRLQTVALSQQIRQSLKEQGYALSHESLKVEKDLRCYGVASSHLKTLLKKSKTKDQKSGPTLPDVTPNLIRDSFVESSHPAVGQSGTKVMSEPLSCAARLQAVASMVEKRASPAASPKPSVACSQLALLLSSEAHLQQYSREHALKTQNAHQVASERLAAMARLQENGQKDVGSSQLSKGVSGHLNGQARALPASKLVANKNNAATFQSPMGVVPSSPKNTSYKNSLERNNLKQAANNSLLLHLLKSQTIPTPMNGHSQNERASSFESSTPTTIDEYSDNNPSFTDDSSGDESSYSNCVPIDLSCKHRIEKPEAERPVSLENLTQSLLNTWDPKIPGVDIKEDQDTSTNSKLNSHQKVTLLQLLLGHKSEETVERNASPQDIHSDGTKFSPQNYTRTSVIESPSTNRTTPVSTPPLYTASQAESPINLSQHSLVIKWNSPPYACSTPASKLTNTAPSHLMDLTKGKESQAEKPAPSEGAQNSATFSASKLLQNLAQCGLQSSGPGEEQRPCKQLLSGNPDKPLGLIDRLNSPLLSNKTNAAEESKAFSSQPAGPEPGLPGCEIENLLERRTVLQLLLGNSSKGKNEKKEKTPARDEAPQEHSERAANEQILMVKIKSEPCDDFQTHNTNLPLNHDAKSAPFLGVTPAIHRSTAALPVSEDFKSEPASPQDFSFSKNGLLSRLLRQNQESYPADEQDKSHRNSELPTLESKNICMVPKKRKLYTEPLENPFKKMKNTAVDTANHHSGPEVLYGSLLHQEELKFSRNELDYKYPAGHSSASDGDHRSWARESKSFNVLKQLLLSENCVRDLSPHRSDSVPDTKKKGHKNNAPGSKPEFGISSLNGLMYSSPQPGSCVTDHRTFSYPGMVKTPLSPPFPEHLGCVGSRPEPGLLNGCSVPGEKGPIKWVIADMDKNEYEKDSPRLTKTNPILYYMLQKGGGNSVTTQETQDKDIWREPASAESLSQVTVKEELLPAAETKASFFNLRSPYNSHMGNNASRPHSTNGEVYGLLGNALTIKKESE
With B3 the binding was “binds”.

Reference: publication PMC11284228
